From patent US20050074834A1 (priority 2001, published 2005)

Assays:
[1] = tested on: chromatophores
[2] = tested on: melanophores
[3] = tested on: Betta splendens erythrophores; format: cell-based
[4] = tested on: chromatophores; assay: cells; conditions: read-out: Threshold concentration PPM

Compound | Threshold concentration PPB [1] | effect on melanophores [2] | Morphology Effect: Aggregation [3] | Morphology Effect: Dispersion [3] | erythrophore pigment dispersion response, control [3] | erythrophore pigment response after norepinephrine pre-treatment [3] | Response time Hr. [1] | minimal effective concentration [4] [µg/mL]
COc1ccc([C@@H]2Sc3ccccc3N(CCN(C)C)C(=O)[C@@H]2OC(C)=O)cc1 [Diltiazem] | XX (key: X=1 to 100 PPB; XX=100 to 1000 PPB) | does not alter melanophores | No | Yes | failed to induce pigment dispersion response | produces pigment dispersion | – | –
CN(C)[C@@H]1C(O)=C(C(N)=O)C(=O)[C@@]2(O)C(O)=C3C(=O)c4c(O)cccc4[C@@](C)(O)[C@H]3C[C@@H]12 [Tetracycline] | – | – | – | – | – | – | XX (key: X=1-6 hr; XX=6-24 hr) | 1 to 100
